Measurements from “University of Dundee, Small-Polar-MMV Screening Library” (2021), ChEMBL document CHEMBL3988442.

Toxoplasma: 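Assay of Toxoplasma gondii numbers, read through their beta-galactosidase reporter with a colour substrate. Tested at 10 µM. The record gives no direction; the compounds picked for IC50 retests had high values, so higher reads as fewer parasites. Of about 67,000 compounds tested this way, about 260 (0.38%) reached 50% or more in at least one test.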
T. brucei: 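Whole-parasite assay of Trypanosoma brucei over 72 hours; the read-out is not stated. Tested at 30 µM. Direction is inferred from retests: higher values go with stronger inhibition. Values scatter widely below zero; nearly all retest evidence comes from the higher of the two concentrations used. Size under these conditions: about 64,000 compounds, about 940 of them at 50% or above in at least one test.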

Each number is a percent effect as filed. How 0% and 100% were set is not recorded. Most values in the screen are low, and negative values occur. This is an unselected part of the compounds tested. A dash means the value is not listed here; it may have been measured.

| SMILES | Toxoplasma | T. brucei |
|---|---|---|
| `[H][C@@]12C[C@@H](C(=O)NCC3CC3)N(C)[C@]1([H])CN(Cc1cccnc1OC)C2` | -2.159 | -12.63 |
| `CCC(C)N1CCc2c(C(=O)N(C)Cc3ccccn3)nn(C)c2C1` (stereo not given) | -3.883 | -62.7 |
| `O=C(O)C(F)(F)F.O=C(O)C(F)(F)F.[H][C@@]12CCN(Cc3cccnc3)C[C@]1(C(=O)N1CCCO1)CCO2` | -4.032 | -5.687 |
| `CC(Cc1ccco1)NS(=O)(=O)N1CCCCCC1` (stereo not given) | -1.07 | -3.922 |
| `CN(C)C(=O)c1cccn1-c1ccc2c(c1)OCCO2` | 14.91 | -17.58 |
| `NC(=O)CC1CCN(S(=O)(=O)c2cnn(-c3ccccc3)c2)CC1` | -4.057 | 13.68 |
| `CC(C)(C)C(=O)N1CCC(c2nc(O)cc(-c3ccncc3)n2)CC1` | 39.11 | -2.114 |
| `Cc1cc(C)n(CCNCc2cc(-c3ccccc3)c[nH]c2=O)n1` | -13.72 | 2.455 |
| `[H][C@]12CC[C@](O)(c3ccc(C)cc3)[C@@]1([H])CN(S(=O)(=O)c1cn(C)nc1C)C2` | 7.958 | -4.658 |
| `CCn1cnnc1C1CCN(C(=O)COCCc2ccccc2)CC1` | 0.1772 | -4.701 |
| `O=C([C@H]1CCCO1)N1CC[C@@H](O)[C@@H]1Cc1ccccc1` | -23.82 | -20.88 |
| `COc1c(F)cc(-c2cn(CCn3c(C)cc(C)nc3=O)nn2)cc1Cl` | 6.485 | -9.267 |
| `Cc1cccc(C2CCCN2Cc2nc(N)nc(N(C)C)n2)c1C` (stereo not given) | 26.91 | 100.5 |
| `Cc1nc2[nH]cnc(NCCCN3CCOCC3)c-2n1` | -7.369 | -13.65 |
| `CCn1ncc2[nH]c(-c3ccc(OC)c(COC)c3)nc21` | 1.006 | -48.1 |
| `COc1ccccc1C(=O)N1CCCC1c1nncn1CC(C)C` (stereo not given) | 16.24 | -5.085 |
| `O=c1c(NCCO)c(N2CCN(c3ccccc3)CC2)c1=O` | 0.974 | -7.283 |
| `Cc1cnc(NCCc2c[nH]cn2)nc1-c1ccnn1C` | 9.522 | -20.67 |
| `CC(C)(C)c1n[nH]c(C2CN(C(=O)c3cc(C4CC4)[nH]n3)CCO2)n1` (stereo not given) | 15.9 | -2.553 |
| `CC(C)CNC(=O)c1[nH]nc(C2CC2)c1Br` | 4.819 | 1.294 |
| `CCc1c(C)sc2ncnc(N3CC[C@@H](N4CCOCC4)[C@H](O)C3)c12` | 1.115 | 17.66 |
| `O=C1CCCCCN1Cc1cccc(OC(F)F)c1` | 18.95 | -43.56 |
| `Cc1c(C2CCCN(C(=O)c3ccncc3)C2)n2c(nc1=O)CCC2.Cl` (stereo not given) | -3.648 | 1.767 |
| `O=C(c1cccc(-n2cnnc2)c1)N1C[C@@H](O)[C@H](N2CCOCC2)C1` | -14.18 | 0.9097 |
| `CC(=O)N(Cc1ncc(C)o1)C1CCN(Cc2nccn2C)C1` (stereo not given) | -12.92 | - |
| `COc1ccc2c(C)c(C(=O)NCC3CN(S(C)(=O)=O)CCO3)oc2c1` (stereo not given) | -12.12 | -34.59 |
| `COc1ncccc1CNCc1c(C)nn(C)c1N(C)C` | -9.545 | 0.4743 |
| `Cc1occc1C(=O)N1CCC2(CC1)C(c1cnn(C)c1)CC(=O)N2C` (stereo not given) | -1.56 | - |
| `[H][C@@]12CCCO[C@]1([H])[C@H](NC(=O)C1CCC1)CN(Cc1ccoc1)C2` | -16.92 | -42.6 |
| `CCn1cnnc1C1CCN(C(=O)c2cnc(C3CC3)s2)CC1` | - | 0.6803 |
| `O=S1(=O)COCCN1Cc1ccc(Cl)c(F)c1` | -4.155 | 9.448 |
| `Cc1ccccc1[C@@H]1CN(CCCS(=O)(=O)N(C)C)C[C@H]1C(=O)O` | -6.926 | -32.16 |
| `CC(=O)NCCc1ncnn1-c1ccc(F)c(Cl)c1` | 4.09 | -0.7812 |
| `O=C(c1ccc(Cl)cc1)N1CCc2nc(C(=O)N3CCCC3)sc2CC1` | 4.845 | -11.35 |
| `CC(c1nc(C2CC2)no1)N1CCN(Cc2ccccc2)CC1` (stereo not given) | -2.918 | 39.95 |
| `O=C(O)C(F)(F)F.[H][C@@]12CCCO[C@]1([H])[C@H](Oc1ccccn1)CN2S(=O)(=O)CC` | -0.2257 | -29.87 |
| `Cn1nc(C(=O)NC2CCCC2)cc1NC(=O)C1CC1` | -6.404 | -5.103 |
| `COc1ccc2c(c1)OCC(Cc1ccc(C)nc1N)C2` (stereo not given) | -1.623 | -7.915 |
| `COc1ccccc1-c1ccnc2nc(N3CCCCC3)[nH]c(=O)c12` | 9.126 | - |
| `c1ccc2sc(N3CCCN(c4ncnc5c4CCNC5)CC3)nc2c1` | 40.85 | 21.58 |
| `COc1ccc(C(=O)Nc2ccc3c(c2)C(=O)NC3)cc1Br` | 6.099 | 6.829 |
| `N#Cc1cc(C#N)c(SCC(=O)Nc2ccc(F)cc2)nc1N` | 11.74 | - |
| `OC(CNc1ccncn1)CN1CCCCCC1` (stereo not given) | 8.005 | -68.66 |
| `O=C(NCCn1cccc1)C(c1cccnc1)N1CCCC1` (stereo not given) | -5.036 | 10.39 |
| `CC(C)NC(=O)NC[C@H]1OC[C@@H](NCc2ccc(F)cc2)[C@@H]1O` | -2.709 | -8.68 |
| `CC[S+](CC)[c-]1c(=O)[nH]c(=O)n(Cc2ccc(F)cc2)c1=O` | 14.05 | - |
| `CCOC(=O)c1sc(NC(=O)CCCC(=O)O)c(C#N)c1C` | 4.206 | - |
| `O=C(NC1CCCC1)c1cnn2c(-c3ccco3)ccnc12` | 5.444 | -11.72 |
| `CC(Cn1ccnc1)NC(=O)NCCc1ccc(Cl)s1` (stereo not given) | 15.16 | -12.76 |
| `CCN(Cc1ccccc1)C(=O)CN1CCOC(Cn2cncn2)C1` (stereo not given) | 24.65 | - |
| `NC(=O)C(CNC(=O)COCC(F)(F)F)Cc1ccc(F)cc1` (stereo not given) | 2.162 | 19.32 |
| `[H][C@]12CC[C@]([H])(CN(C(=O)c3csc(Cc4ccccc4)n3)C1)N(C)C2=O` | -17.58 | -43.95 |
| `Cc1nn(C)c2ncnc(N3CCCC(OCc4cccnc4)C3)c12` (stereo not given) | 6.629 | 7.769 |
| `COCCC(=O)N1CCCC(c2nc(O)cc(-c3ccncc3)n2)C1` (stereo not given) | 12.91 | -19.62 |
| `Cc1cc(N(C)CCN(C)C2CCCC2)n2nc(C)cc2n1` | 3.526 | 14 |
| `[H][C@@]12CC[C@H](Oc3cccc(F)c3)[C@]1([H])CN(C(=O)c1ncccn1)C2` | -2.679 | 23.1 |
| `Cn1c(CN2CCC(O)CC2)nnc1C1CCCN(c2ccncc2)C1` (stereo not given) | -28.23 | -1.196 |
| `Cc1cccc(NCCOc2cccc(C#N)c2)c1C(N)=O` | 9.891 | -41.43 |
| `COc1ccccc1C(=O)NCC(c1cccn1C)N1CCOCC1` (stereo not given) | 13.79 | -12.9 |

3 of the entries, repeated:

{"smiles": "O=C(c1cccc(-n2cnnc2)c1)N1C[C@@H](O)[C@H](N2CCOCC2)C1", "Toxoplasma": -14.18, "T. brucei": 0.9097}
{"smiles": "CCn1cnnc1C1CCN(C(=O)c2cnc(C3CC3)s2)CC1", "T. brucei": 0.6803}
{"smiles": "COc1ccc(C(=O)Nc2ccc3c(c2)C(=O)NC3)cc1Br", "Toxoplasma": 6.099, "T. brucei": 6.829}